Laboratory results: paper PMC7859282
No constants are given. Whether binding was seen depends on the method and setting. In cells and extracts the contact can be indirect. Some results given as binding are weak or reduced against the parent protein; the word gives no strength. For part of these data: Where a sequence is shown, tags or fusion partners need not be part of it. Each block holds one molecule with its values, some of them ahead of it.

Amino acid sequences for entries named in this document (tags omitted).
UniProt P62745: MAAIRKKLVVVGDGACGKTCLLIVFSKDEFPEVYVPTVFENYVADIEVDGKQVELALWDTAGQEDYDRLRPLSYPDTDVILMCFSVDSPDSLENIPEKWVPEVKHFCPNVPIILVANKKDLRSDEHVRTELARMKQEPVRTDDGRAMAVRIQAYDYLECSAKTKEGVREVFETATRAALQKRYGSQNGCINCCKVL

Legend:
[1] = target: T1, Tumor necrosis factor alpha induced protein 1 (TNFAIP1), endogenous (human (endogenous in HepG2)) (UniProt Q13829); test: co-IP; endogenous proteins; HepG2 cells treated with MG132 (5 uM) for 6 h; lysate incubated with anti-TNFAIP1 antibody overnight at 4°C, protein A/G; immunoblot
T1 sequence: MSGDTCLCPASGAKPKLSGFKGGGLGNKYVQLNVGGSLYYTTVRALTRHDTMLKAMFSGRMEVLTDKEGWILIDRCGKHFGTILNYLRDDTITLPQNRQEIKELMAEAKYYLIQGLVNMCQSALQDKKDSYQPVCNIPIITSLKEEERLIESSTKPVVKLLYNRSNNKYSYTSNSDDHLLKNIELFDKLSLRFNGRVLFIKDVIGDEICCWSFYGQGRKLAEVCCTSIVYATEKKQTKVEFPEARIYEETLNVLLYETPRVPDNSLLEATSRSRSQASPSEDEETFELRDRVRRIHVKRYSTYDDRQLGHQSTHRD

[2] = target: RhoB (endogenous) (human (endogenous in HepG2)) (UniProt P62745); test: co-IP; endogenous proteins; HepG2 cells treated with MG132 (5 uM) for 6 h; lysate incubated with anti-RhoB antibody overnight at 4°C, protein A/G; immunoblot
Flag-RhoB (human) = Flag-RhoB (human) (UniProt P62745); test: co-IP; HEK293T cells transfected with Flag-RhoB and HA-TNFAIP1, MG132 for 6 h; lysate incubated with anti-Flag M2 beads overnight at 4°C; immunoblot

Molecule: RhoB (endogenous) (from UniProt P62745 1-196)
binding [1]: binds

binding [2]: binds
B1: Tumor necrosis factor alpha induced protein 1 (TNFAIP1), endogenous (protein, UniProt Q13829 1-316)
chain: T1 sequence

binding (Flag-RhoB (human)): binds
B2: HA-TNFAIP1 (protein, UniProt Q13829 1-316)
chain: T1 sequence
